PubChem BioAssay AID493246 | Drosophila RNAi Screening Center – 2011
In all, the deposit lists about 21,000 reagents; shown is a random part of those that have a named target and a result. Of all reagents, 429 (2%) got an active call. 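Values are raw and not normalised between plates; calls rest on per-plate z-scores that were not deposited.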 Names joined by + are all predicted targets of the reagent. Not stated in the record: the amount of reagent, the time to read-out.

Purpose: 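Identify essential fly genes by loss of cell viability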 (primary screen)
System: Drosophila Kc and S2R+ cells
Reagents: long dsRNA against Drosophila genes
Read-out: 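Raw, unnormalised count of remaining cells in each well; per-plate z-scores of cell number underlie the calls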
Reading the numbers: Kc cell number and S2R+ cell number: higher = more cells remaining
Rule for the call: 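Counted as a hit if cell number falls by a z-score of at least 3 within its plate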

gene	amplicon	Kc cell number, rep 1	Kc cell number, rep 2	S2R+ cell number, rep 1	S2R+ cell number, rep 2	outcome
CG34375	DRSC14684	1.40e6	1.51e6	9.70e5	1.08e6	inactive
CG34375	DRSC14685	1.44e6	1.40e6	9.62e5	1.02e6	inactive
l(3)neo43	DRSC14988	1.18e6	1.43e6	1.04e6	1.13e6	inactive
CG7406	DRSC20042	1.69e6	1.65e6	1.07e6	1.24e6	inactive
Creld	DRSC00308	1.60e6	1.59e6	1.06e6	1.23e6	inactive
CG14710	DRSC14933	1.52e6	1.59e6	1.16e6	1.19e6	inactive
CG9662	DRSC00723	1.72e6	1.76e6	1.25e6	1.39e6	inactive
RanBP3	DRSC14217	1.50e6	1.66e6	1.00e6	1.14e6	inactive
CG34228	DRSC05300	1.45e6	1.53e6	1.08e6	1.24e6	inactive
CG42726 + CG42727	DRSC14485	1.70e6	1.82e6	1.42e6	1.55e6	inactive
TwdlV	DRSC12226	1.37e6	1.53e6	1.21e6	1.23e6	inactive
Cks30A	DRSC03292	1.39e6	1.36e6	1.18e6	1.24e6	inactive
CG12782	DRSC04127	1.63e6	1.62e6	1.33e6	1.44e6	inactive
CG13613	DRSC14616	1.68e6	1.65e6	1.08e6	1.13e6	inactive
CG14882	DRSC15006	1.52e6	1.59e6	1.15e6	1.20e6	inactive
cac	DRSC19743	1.54e6	1.48e6	1.05e6	1.15e6	inactive
cac	DRSC20354	5.80e5		8.33e5		inactive
Tcs4	DRSC19587	1.56e6	1.60e6	1.07e6	1.22e6	inactive
Cbs	DRSC20553	1.39e6	1.45e6	1.04e6	1.18e6	inactive
CG9525	DRSC03249	1.55e6	1.59e6	1.15e6	1.25e6	inactive
Ir85a	DRSC14382	1.35e6	1.50e6	1.28e6	1.36e6	inactive
SmydA-2	DRSC10296	1.78e6	1.89e6	1.41e6	1.58e6	inactive
Cpr	DRSC03293	1.38e6	1.45e6	4.89e5	9.40e5	inactive
CG9747	DRSC16554	1.38e6	1.30e6	9.99e5	1.16e6	inactive
CG17475	DRSC15238	1.26e6	1.30e6	1.22e6	1.33e6	inactive
Ir48b	DRSC06320	1.92e6	1.84e6	1.21e6	1.43e6	inactive
Uba1	DRSC07567	1.33e6	1.39e6	1.02e6	1.16e6	inactive
CG11322	DRSC02142	1.70e6	1.84e6	1.14e6	1.31e6	inactive
Nap1	DRSC04626	1.36e6	1.36e6	9.99e5	1.02e6	inactive
CG8950	DRSC07300	1.34e6	1.41e6	1.28e6	1.26e6	inactive
Adat1	DRSC03479	1.50e6	1.53e6	1.24e6	1.39e6	inactive
ND-MLRQ	DRSC11913	1.56e6	1.71e6	1.17e6	1.33e6	inactive
Dys + snoRNA:Me18S-A1374	DRSC16232	1.35e6	1.31e6	1.03e6	1.17e6	inactive
Exd2	DRSC16105	1.41e6	1.43e6	1.21e6	1.26e6	inactive

Targets listed so far whose target name starts with T or t (2):
gene	amplicon	Kc cell number, rep 1	Kc cell number, rep 2	S2R+ cell number, rep 1	S2R+ cell number, rep 2	outcome
TwdlV	DRSC12226	1.37e6	1.53e6	1.21e6	1.23e6	inactive
Tcs4	DRSC19587	1.56e6	1.60e6	1.07e6	1.22e6	inactive

The results go on:
gene	amplicon	Kc cell number, rep 1	Kc cell number, rep 2	S2R+ cell number, rep 1	S2R+ cell number, rep 2	outcome
Ugt305A1	DRSC08541	1.43e6	1.30e6	1.05e6	1.23e6	inactive
Vha36-3	DRSC18615	1.41e6	1.46e6	9.86e5	1.09e6	inactive
Pcd	DRSC16785	1.45e6	1.47e6	9.89e5	1.05e6	inactive
CG8565	DRSC20112	1.68e6	1.70e6	1.21e6	1.28e6	inactive
pyx	DRSC08510	1.42e6	1.31e6	9.86e5	1.25e6	inactive
pyx	DRSC08511	1.42e6	1.38e6	8.29e5	1.15e6	inactive
CG2082	DRSC12125	1.49e6	1.55e6	1.19e6	1.27e6	inactive
Esp	DRSC16664	1.58e6	1.54e6	1.03e6	1.13e6	inactive
Pde1c	DRSC02421	1.66e6	1.63e6	1.29e6	1.45e6	inactive
Pde1c	DRSC02422	1.55e6	1.62e6	1.25e6	1.47e6	inactive
Pde1c	DRSC02423	1.55e6	1.62e6	1.24e6	1.49e6	inactive
Pde1c	DRSC02424	1.69e6	1.70e6	1.31e6	1.62e6	inactive
Pde1c	DRSC02425	1.60e6	1.71e6	1.15e6	1.33e6	inactive
Pde1c	DRSC02426	1.53e6	1.68e6	1.23e6	1.35e6	inactive
Noa36	DRSC16761	6.03e5		8.64e5		inactive
Ipk1	DRSC04235	1.42e6	1.48e6	1.16e6	1.20e6	inactive
Ipk1	DRSC04236	1.52e6	1.60e6	1.31e6	4.12e5	inactive
Ipk1	DRSC04237	1.52e6	1.63e6	1.32e6	3.84e5	inactive
ng3	DRSC18804	1.63e6	1.57e6	1.08e6	1.22e6	inactive
CG31102	DRSC14260	1.42e6	1.44e6	1.06e6	1.18e6	inactive
Ace	DRSC12959	1.36e6	1.57e6	1.01e6	1.15e6	inactive
Ace	DRSC14100	1.67e6	1.74e6	1.42e6	1.54e6	inactive
CG6675	DRSC03735	1.68e6	1.66e6	1.24e6	3.11e5	inactive
alpha-Est3	DRSC12615	1.66e6	1.67e6	1.21e6	1.30e6	inactive
ced-6	DRSC07591	1.71e6	1.80e6	1.28e6	1.44e6	inactive
